These are yes or no findings as the source states them, for the method shown. In cells and extracts the contact can be indirect. Some results given as binding are weak or reduced against the parent protein; the word gives no strength. Where a sequence is shown, tags or fusion partners need not be part of it.
T1: WT hHV1-GFP (human voltage gated proton channel, GFP-tagged) (human) (UniProt Q96D96)
T1 sequence: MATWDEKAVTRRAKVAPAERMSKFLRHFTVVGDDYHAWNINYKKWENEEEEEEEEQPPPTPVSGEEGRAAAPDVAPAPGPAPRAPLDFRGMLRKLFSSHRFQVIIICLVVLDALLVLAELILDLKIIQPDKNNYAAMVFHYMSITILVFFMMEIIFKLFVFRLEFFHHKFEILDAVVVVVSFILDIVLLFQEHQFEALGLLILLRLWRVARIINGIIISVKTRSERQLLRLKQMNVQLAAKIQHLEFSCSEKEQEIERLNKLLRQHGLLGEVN


Molecular target: T1, WT hHV1-GFP (human voltage gated proton channel, GFP-tagged) (human)
Experiment: co-IP

| binding | Binder |
| --- | --- |
| no binding | FLOT2-N-myc (flotillin 2) (protein, UniProt Q14254 1-428) MGNCHTVGPNEALVVSGGCCGSDYKQYVFGGWAWAWWCISDTQRISLEIMTLQPRCEDVETAEGVALTVTGVAQVKIMTEKELLAVACEQFLGKNVQDIKNVVLQTLEGHLRSILGTLTVEQIYQDRDQFAKLVREVAAPDVGRMGIEILSFTIKDVYDKVDYLSSLGKTQTAVVQRDADIGVAEAERDAGIREAECKKEMLDVKFMADTKIADSKRAFELQKSAFSEEVNIKTAEAQLAYELQGAREQQKIRQEEIEIEVVQRKKQIAVEAQEILRTDKELIATVRRPAEAEAHRIQQIAEGEKVKQVLLAQAEAEKIRKIGEAEAAVIEAMGKAEAERMKLKAEAYQKYGDAAKMALVLEALPQIAAKIAAPLTKVDEIVVLSGDNSKVTSEVNRLLAELPASVHALTGVDLSKIPLIKKATGVQV |
| binds | stomatin-N-myc (protein, UniProt P27105 1-288) MAEKRHTRDSEAQRLPDSFKDSPSKGLGPCGWILVAFSFLFTVITFPISIWMCIKIIKEYERAIIFRLGRILQGGAKGPGLFFILPCTDSFIKVDMRTISFDIPPQEILTKDSVTISVDGVVYYRVQNATLAVANITNADSATRLLAQTTLRNVLGTKNLSQILSDREEIAHNMQSTLDDATDAWGIKVERVEIKDVKLPVQLQRAMAAEAEASREARAKVIAAEGEMNASRALKEASMVITESPAALQLRYLQTLTTIAAEKNSTIVFPLPIDMLQGIIGAKHSHLG |
| no binding | FLOT1-N-myc (flotillin 1) (protein, UniProt O75955 1-427) MFFTCGPNEAMVVSGFCRSPPVMVAGGRVFVLPCIQQIQRISLNTLTLNVKSEKVYTRHGVPISVTGIAQVKIQGQNKEMLAAACQMFLGKTEAEIAHIALETLEGHQRAIMAHMTVEEIYKDRQKFSEQVFKVASSDLVNMGISVVSYTLKDIHDDQDYLHSLGKARTAQVQKDARIGEAEAKRDAGIREAKAKQEKVSAQYLSEIEMAKAQRDYELKKAAYDIEVNTRRAQADLAYQLQVAKTKQQIEEQRVQVQVVERAQQVAVQEQEIARREKELEARVRKPAEAERYKLERLAEAEKSQLIMQAEAEAASVRMRGEAEAFAIGARARAEAEQMAKKAEAFQLYQEAAQLDMLLEKLPQVAEEISGPLTSANKITLVSSGSGTMGAAKVTGEVLDILTRLPESVERLTGVSISQVNHKPLRTA |

Source: article doi:10.1101/2023.09.28.560017
